The source of these data is the supplement of paper PMC4635364.

Structures can show the parent of a compound that is named as a salt. The list shows a part of the results. This data set is noisy: repeats of one test often differ as much as different tests do.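 Cells: ReNCell VM human fetal ventral-midbrain neural progenitors, differentiated mitogen-free. Blinded raters compared doublecortin-stained (early neurons) or tyrosine hydroxylase-stained (dopaminergic neurons) images with untreated wells, where 0 means no change. After repeats and both raters were averaged, compounds scoring 2 or above became hits for retesting.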

For assay [1], the system named is ReNCell VM. The assay is described as follows: neuronal differentiation score (DCX+ cell fraction vs untreated, manual image score) (score (-3 to 3)); higher = more neuronal differentiation. The note with it: 2 uM, 2 weeks.
Assay [2] deals with ReNCell VM. The assay is described as follows: dopaminergic neuron differentiation score (TH+ cell fraction vs untreated, manual image score) (score (0 to 3)); higher = more TH+ dopaminergic neuron differentiation. The conditions noted are these: 2 uM, 4 weeks, BDNF 10 ng/ml + GDNF 10 ng/ml.

Turning to `CC(C)NCC(O)c1ccc(NS(C)(=O)=O)cc1` (centres undefined) [Sotalol hydrochloride], the neuronal differentiation score in assay [1] (library: Prestwick) and in assay [1] (library: Tocriscreen) was inactive: 1 in each case. The “dopaminergic neuron differentiation score” value in assay [2] (library: Prestwick) and in assay [2] (library: Tocriscreen) was inactive: 0 in each case.

As for `CCn1c(=O)[nH]c2cc(Cl)c(Cl)cc21`, the neuronal differentiation score in assay [1] (library: LOPAC) and in assay [1] (library: Tocriscreen) was inactive: 0 throughout. The “dopaminergic neuron differentiation score” value in assay [2] (library: LOPAC) and in assay [2] (library: Tocriscreen) was inactive: 0 throughout.

Take `OCCN1CCN(CCCN2c3ccccc3Sc3ccc(Cl)cc32)CC1` [Perphenazine]: the neuronal differentiation score in assay [1] (library: LOPAC) and in assay [1] (library: Prestwick) was inactive: 0 throughout. In addition, the “dopaminergic neuron differentiation score” value in assay [2] (library: LOPAC) and in assay [2] (library: Prestwick) was inactive: 0 each time.

On to `Cc1ccccc1C(OCCN(C)C)c1ccccc1` (centres undefined) [Orphenadrine hydrochloride], for which the neuronal differentiation score in assay [1] (library: LOPAC) and in assay [1] (library: Prestwick) was inactive: 0 each time. Further, the “dopaminergic neuron differentiation score” value in assay [2] (library: LOPAC) and in assay [2] (library: Prestwick) was inactive: 0 throughout.

On to `Nc1nc(N)nc(-c2cc(Cl)ccc2Cl)n1` [Irsogladine maleate], for which the neuronal differentiation score in assay [1] (library: Prestwick) and in assay [1] (library: Tocriscreen) was inactive: 0 each time. The “dopaminergic neuron differentiation score” value in assay [2] (library: Prestwick) and in assay [2] (library: Tocriscreen) was inactive: 0 each time.

In the case of `CNS(=O)(=O)Cc1ccc2[nH]cc(CCN(C)C)c2c1` [Sumatriptan succinate], the neuronal differentiation score in assay [1] (library: Prestwick) and in assay [1] (library: Tocriscreen) was inactive: 0 throughout. In addition, the “dopaminergic neuron differentiation score” value in assay [2] (library: Prestwick) and in assay [2] (library: Tocriscreen) was inactive: 0 each time.

As to `CNC(=O)[C@H]1O[C@@H](n2cnc3c(NCc4cccc(I)c4)ncnc32)[C@H](O)[C@@H]1O`, the neuronal differentiation score in assay [1] (library: LOPAC) and in assay [1] (library: Tocriscreen) was inactive: 0 each time. Moreover, the “dopaminergic neuron differentiation score” value in assay [2] (library: LOPAC) and in assay [2] (library: Tocriscreen) was inactive: 0 in each case.

Turning to `CC(C(=O)O)c1cccc(C(=O)c2ccccc2)c1` (centres undefined) [Ketoprofen], the neuronal differentiation score in assay [1] (library: LOPAC) and in assay [1] (library: Prestwick) was inactive: 0 each time. For the same compound, the “dopaminergic neuron differentiation score” value in assay [2] (library: LOPAC) and in assay [2] (library: Prestwick) was inactive: 0 each time.

For the compound `CC1COc2c(N3CCN(C)CC3)c(F)cc3c(=O)c(C(=O)O)cn1c23` (centres undefined) [Ofloxacin], the neuronal differentiation score in assay [1] (library: LOPAC) and in assay [1] (library: Prestwick) was inactive: 0 in each case. The “dopaminergic neuron differentiation score” value in assay [2] (library: LOPAC) and in assay [2] (library: Prestwick) was inactive: 0 throughout.

As to `NS(=O)(=O)c1cc2c(cc1Cl)NCNS2(=O)=O` [Hydrochlorothiazide], the neuronal differentiation score in assay [1] (library: LOPAC) and in assay [1] (library: Prestwick) was inactive: 0 throughout. In addition, the “dopaminergic neuron differentiation score” value in assay [2] (library: LOPAC) and in assay [2] (library: Prestwick) was inactive: 0 each time.

`CN(C)c1ccc(O)c2c1C[C@H]1C[C@H]3[C@H](N(C)C)C(O)=C(C(N)=O)C(=O)[C@@]3(O)C(O)=C1C2=O` [Minocycline hydrochloride]: the neuronal differentiation score in assay [1] (library: LOPAC) and in assay [1] (library: Prestwick) was inactive: 0 in each case. The “dopaminergic neuron differentiation score” value in assay [2] (library: LOPAC) and in assay [2] (library: Prestwick) was inactive: 0 each time.

On to `Cc1cc(C)c(/C=C2\C(=O)Nc3ccccc32)[nH]1`, for which the neuronal differentiation score in assay [1] (library: LOPAC) is active: 2; in assay [1] (library: Tocriscreen), inactive: 0. For the same compound, the entries for the “dopaminergic neuron differentiation score” value in assay [2] (library: LOPAC) and in assay [2] (library: Tocriscreen) were active: 3 and inactive: 1, respectively.

`O=C(c1ccc(F)cc1)C1CCN(CCn2c(=O)[nH]c3ccccc3c2=O)CC1` [Ketanserin tartrate]: the neuronal differentiation score in assay [1] (library: LOPAC) and in assay [1] (library: Tocriscreen) was inactive: 0 in each case. The “dopaminergic neuron differentiation score” value in assay [2] (library: LOPAC) and in assay [2] (library: Tocriscreen) was inactive: 0 throughout.

Take `CN(C)CCC=C1c2ccccc2C=Cc2ccccc21` [Cyclobenzaprine hydrochloride]: the neuronal differentiation score in assay [1] (library: LOPAC) is inactive: 1; in assay [1] (library: Prestwick) it was inactive: 0. Moreover, the “dopaminergic neuron differentiation score” value in assay [2] (library: LOPAC) and in assay [2] (library: Prestwick) was inactive: 0 each time.

Take `CC(C)NCC(O)c1ccc2ccccc2c1` (centres undefined) [Pronethalol hydrochloride]: the neuronal differentiation score in assay [1] (library: Prestwick) and in assay [1] (library: Tocriscreen) was inactive: 0 throughout. For the same compound, the “dopaminergic neuron differentiation score” value in assay [2] (library: Prestwick) and in assay [2] (library: Tocriscreen) was inactive: 0 in each case.

Take `O=[N+]([O-])c1cccc2cn[nH]c12` [7-Nitroindazole]: the neuronal differentiation score in assay [1] (library: LOPAC) and in assay [1] (library: Tocriscreen) was inactive: 0 in each case. The “dopaminergic neuron differentiation score” value in assay [2] (library: LOPAC) and in assay [2] (library: Tocriscreen) was inactive: 0 each time.

On to `COc1ccc2[nH]c([S+]([O-])Cc3ncc(C)c(OC)c3C)nc2c1` (centres undefined) [Omeprazole], for which the neuronal differentiation score in assay [1] (library: Prestwick) and in assay [1] (library: Tocriscreen) was inactive: 0 each time. For the same compound, the “dopaminergic neuron differentiation score” value in assay [2] (library: Prestwick) and in assay [2] (library: Tocriscreen) was inactive: 0 in each case.

In the case of `O=C(O)c1ccccc1Nc1cccc(OCc2ccc3ccccc3n2)c1`, the values for the neuronal differentiation score in assay [1] (library: LOPAC) and in assay [1] (library: Spectrum) were inactive: 1 and inactive: 0, respectively. In addition, the “dopaminergic neuron differentiation score” value in assay [2] (library: LOPAC) and in assay [2] (library: Spectrum) was inactive: 0 throughout.

On to `CC12CC3CC(C)(C1)CC(N)(C3)C2` [Memantine hydrochloride], for which the neuronal differentiation score in assay [1] (library: LOPAC) and in assay [1] (library: Tocriscreen) was inactive: 0 each time. The “dopaminergic neuron differentiation score” value in assay [2] (library: LOPAC) and in assay [2] (library: Tocriscreen) was inactive: 0 in each case.

On to `Cc1cccc(C)c1NC(=O)C(C)N` (centres undefined) [Tocainide hydrochloride], for which the neuronal differentiation score in assay [1] (library: LOPAC) and in assay [1] (library: Prestwick) was inactive: 0 throughout. The “dopaminergic neuron differentiation score” value in assay [2] (library: LOPAC) and in assay [2] (library: Prestwick) was inactive: 0 in each case.

As to `CC(=O)Nc1nnc(S(N)(=O)=O)s1` [Acetazolamide], the neuronal differentiation score in assay [1] (library: LOPAC) and in assay [1] (library: Prestwick) was inactive: 0 in each case. Also, the “dopaminergic neuron differentiation score” value in assay [2] (library: LOPAC) and in assay [2] (library: Prestwick) was inactive: 0 throughout.

On to `COc1ccccc1O` [Guaiacol], for which the neuronal differentiation score in assay [1] (library: Phytochemical) and in assay [1] (library: Prestwick) was inactive: 0 in each case. In addition, the “dopaminergic neuron differentiation score” value in assay [2] (library: Phytochemical) and in assay [2] (library: Prestwick) was inactive: 0 throughout.

With `O=C1Nc2ccc(I)cc2/C1=C/c1cc(Br)c(O)c(Br)c1`, the results for the neuronal differentiation score in assay [1] (library: LOPAC) and in assay [1] (library: Tocriscreen) were inactive: 1 and inactive: 0, respectively. Besides, the “dopaminergic neuron differentiation score” value in assay [2] (library: LOPAC) and in assay [2] (library: Tocriscreen) was inactive: 0 in each case.

`O=C(O)C1(C(=O)O)CCC1.[NH2-].[NH2-].[Pt+2]` [Carboplatin]: the neuronal differentiation score in assay [1] (library: LOPAC) and in assay [1] (library: Tocriscreen) was inactive: 0 in each case. Besides, the “dopaminergic neuron differentiation score” value in assay [2] (library: LOPAC) and in assay [2] (library: Tocriscreen) was inactive: 0 throughout.

As for `C1CCC(N=C(NC23CC4CC(CC(C4)C2)C3)N2CCOCC2)CC1`, the neuronal differentiation score in assay [1] (library: LOPAC) is inactive: 0; in assay [1] (library: Tocriscreen), inactive: -1. Moreover, the “dopaminergic neuron differentiation score” value in assay [2] (library: LOPAC) and in assay [2] (library: Tocriscreen) was inactive: 0 each time.

For the compound `COc1ccc(CN(CCN(C)C)c2ccccn2)cc1` [Pyrilamine maleate], the results for the neuronal differentiation score in assay [1] (library: LOPAC) and in assay [1] (library: Prestwick) were inactive: -1 and inactive: 0, respectively. Also, the “dopaminergic neuron differentiation score” value in assay [2] (library: LOPAC) and in assay [2] (library: Prestwick) was inactive: 0 throughout.
